{"sequences": {"note": "Sequences of proteins named here, by UniProt entry; tags and fusion partners are left off. A change or cut given only in a name is not applied to a line headed by its entry.", "UniProt P51450": "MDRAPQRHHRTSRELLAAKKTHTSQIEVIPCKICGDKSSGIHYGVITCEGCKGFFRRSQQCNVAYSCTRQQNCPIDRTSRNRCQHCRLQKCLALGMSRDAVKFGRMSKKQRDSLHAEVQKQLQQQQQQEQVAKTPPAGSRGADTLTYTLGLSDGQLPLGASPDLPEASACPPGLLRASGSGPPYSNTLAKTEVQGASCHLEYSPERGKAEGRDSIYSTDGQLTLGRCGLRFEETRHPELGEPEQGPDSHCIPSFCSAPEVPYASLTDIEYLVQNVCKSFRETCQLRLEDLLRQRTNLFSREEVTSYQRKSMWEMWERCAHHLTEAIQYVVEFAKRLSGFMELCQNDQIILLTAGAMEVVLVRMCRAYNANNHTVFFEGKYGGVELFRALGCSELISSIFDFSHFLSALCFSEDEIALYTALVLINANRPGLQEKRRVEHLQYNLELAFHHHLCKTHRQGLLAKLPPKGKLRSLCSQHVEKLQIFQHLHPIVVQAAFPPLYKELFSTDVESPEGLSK"}, "source": "PubChem BioAssay AID2551", "about": "(National Center for Advancing Translational Sciences (NCATS), 2010)", "note": "The whole screen tested about 310,000 compounds, of which about 17,000 (5.5%) were called active. This list was built around the results that the source calls inconclusive (neither active nor inactive); the mix of calls is not that of the screen. Calls come from the whole dose curve; as a rule, active = well fitted inhibition curve with a large enough effect; inconclusive = small, poorly fitted or top-dose-only effect, or effect the other way; inactive = no such curve, though single readings can be large or run the other way. Potencies of inconclusive entries are doubtful fits and often do not repeat. Potency is the fitted concentration of half-maximal effect."}
{"target": "Nuclear receptor ROR-gamma (Mus musculus) (UniProt P51450)", "test": "qHTS for inhibitors of ROR gamma transcriptional activity; note: nearly all actives have a fitted effect of over 60% in size", "conditions": "Drosophila S2 Gal4-RORgamma UAS-luciferase reporter, 20 h; series mostly up to 53.6 µM", "outline": "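Drosophila Schneider cells stably carrying a metallothionein-driven Gal4 DBD–ROR gamma fusion and a UAS-Photinus luciferase reporter were exposed to compound for 1 hr, then induced with copper sulfate (700 uM final) for 20 hr at ambient temperature before luminescence reading.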"}
{"smiles": "O=C(N/N=C/c1ccco1)C12CC3CC(CC(C3)C1)C2", "Potency": "inconclusive: 35.5 µM [inhibitor, single point]"}
{"smiles": "Cc1ccc(/C(C#N)=C\\c2ccc(N3CCOCC3)o2)cc1", "Potency": "active: 1.78 µM"}
{"smiles": "Cc1cccc2c(=O)cc(C)n(CC(=O)N3CCCCC3)c12", "Potency": "inconclusive: 10 µM [inhibitor, partial curve]"}
{"smiles": "COc1ccc(C(=O)/C=C/c2cc(OC)c(O)c(OC)c2)c(F)c1", "Potency": "inconclusive: 17.8 µM [inhibitor, single point]"}
{"smiles": "COc1cccc(NS(=O)(=O)c2ccc(Br)s2)c1", "Potency": "active: 3.55 µM"}
{"smiles": "c1ccc(-c2cn(-c3ccccc3)c3[n+]2CCCS3)cc1", "Potency": "inactive"}
{"smiles": "COCCN(C(=O)CC(C)(C)C)c1nnc(-c2cccnc2)s1", "Potency": "inconclusive: 3.55 µM [activator, full curve, poor fit]"}
{"smiles": "CCCCCCC(=O)N1CCC(c2nc3c(nnn3Cc3ccccc3Cl)c(=O)[nH]2)CC1", "Potency": "active: 7.08 µM"}
{"smiles": "COc1ccccc1C1SCCN1S(C)(=O)=O", "note": "(configuration not stated)", "Potency": "inactive"}
{"smiles": "CC(C)C(=O)NNC(=O)c1ccccn1", "Potency": "inconclusive: 31.6 µM [inhibitor, single point]"}
{"smiles": "Cc1ccccc1C(=O)NC1CCN(C(=O)N(c2ccccc2)c2ccccc2)CC1", "Potency": "active: 11.2 µM"}
{"smiles": "CCOC(=O)c1c(C)[nH]c(C(=O)C(C)Cl)c1C", "note": "(configuration not stated)", "Potency": "inactive"}
{"smiles": "CCOC(=O)c1ccc(N2CN(CCc3ccccc3)CNC2=S)cc1", "Potency": "inconclusive: 35.5 µM [inhibitor, single point]"}
{"smiles": "COc1cc(C(=O)Nc2nnc(C(F)(F)F)s2)c([N+](=O)[O-])cc1OC", "Potency": "inactive"}
{"smiles": "CCN(CC)CCNC(=O)C(Oc1ccccc1)Oc1ccccc1", "Potency": "inactive"}
{"smiles": "CCc1cc(-c2n[nH]c(=S)n2CC(C)C)cs1", "Potency": "active: 2.51 µM"}
{"smiles": "CC1(C)CC(=O)C2=C(C1)N(c1ccccc1)C(N)=C(C#N)C2c1ccsc1", "note": "(configuration not stated)", "Potency": "inconclusive: 35.5 µM [inhibitor, single point]"}
{"smiles": "CCOc1ccc2[nH]c(=O)c(CN(Cc3cccs3)Cc3nnnn3C(C)(C)C)cc2c1", "Potency": "inconclusive: 0.0708 µM [activator, single point]"}
{"smiles": "COc1ccc(OC)c(C2C(C(=O)c3cccs3)=C(O)C(=O)N2c2cc(C)on2)c1", "note": "(configuration not stated)", "Potency": "inconclusive: 25.1 µM [activator, single point]"}
{"smiles": "Cc1ccc2nc(-c3sc4nc(C)cc(C)c4c3N)[nH]c2c1", "Potency": "inconclusive: 0.0398 µM [activator, full curve, poor fit]"}
{"smiles": "Cc1ccc(-n2nnnc2-c2cnn(-c3cccc(F)c3)c2C(F)(F)F)cc1", "Potency": "inconclusive: 14.1 µM [activator, partial curve]"}
{"smiles": "Nc1ccc(-c2ccc(N)c(C(=O)O)c2)cc1C(=O)O", "Potency": "inactive"}
{"smiles": "O=C(CCNC(=O)c1ccco1)Nc1cccc(Br)c1", "Potency": "inactive"}
{"smiles": "COc1cc(NC(=O)C2CC(c3ccccc3Cl)=NO2)cc(OC)c1OC", "note": "(configuration not stated)", "Potency": "inconclusive: 4.47 µM [activator, full curve]"}
{"smiles": "COc1cc(OC)cc(C(=O)N[C@H](C(=O)OCC(=O)Nc2ccc(F)c(F)c2)C(C)C)c1", "Potency": "inconclusive: 12.6 µM [activator, single point]"}
{"smiles": "NC(=S)N=Nc1c(O)n(Cc2ccc(F)cc2)c2ccccc12", "Potency": "active: 1.26 µM"}
{"smiles": "CCOc1ccc(Cc2n[nH]c(=S)n2Cc2ccccc2)cc1", "Potency": "active: 4.47 µM"}
{"smiles": "O=C(NC(=S)Nc1ccccc1O)c1ccc(-c2ccc(Cl)cc2)o1", "Potency": "active: 3.16 µM"}
{"smiles": "Cc1ccc2cccnc2c1NC(=S)NC(=O)c1ccccc1", "Potency": "active: 1.26 µM"}
{"smiles": "CC1CCCC(C)N1CC(O)COc1c(F)cc(Br)cc1F", "note": "(configuration not stated)", "Potency": "inconclusive: 6.31 µM [inhibitor, single point]"}
{"smiles": "Cc1ccc(N2C(=O)c3ccccc3NC2C(C)Cc2ccc3c(c2)OCO3)cc1", "note": "(configuration not stated)", "Potency": "inconclusive: 15.8 µM [activator, single point]"}
{"smiles": "CCOC(=O)CC1(NC(=O)c2cc(COc3cncc(Cl)c3)on2)CCCCC1", "Potency": "inconclusive: 22.4 µM [activator, single point]"}
{"smiles": "Cc1cc(=O)oc(C)c1C(=O)OCC(=O)c1ccc(Br)cc1", "Potency": "inconclusive: 7.94 µM [activator, partial curve, poor fit]"}
{"smiles": "CC(C)(C)c1ccc(C2(C)NC(=O)N(CC(=O)NCc3cccs3)C2=O)cc1", "note": "(configuration not stated)", "Potency": "inconclusive: 11.2 µM [activator, partial curve]"}
{"smiles": "COc1cccc(-c2cc(C(=O)O)no2)c1", "Potency": "inactive"}
{"smiles": "O=C(CSc1ccc(-c2nc3ccccc3[nH]2)cn1)Nc1ccc(S(=O)(=O)N2CCCC2)cc1", "Potency": "inactive"}
{"smiles": "Cc1ccc(OCCN2CCN(C(=O)CCC(=O)Nc3nnc(CC(C)C)s3)CC2)cc1", "Potency": "inconclusive: 12.6 µM [activator, single point]"}
{"smiles": "C/C(=N\\NC(=O)Cn1c(-c2ccccn2)nc2ccccc21)c1ccccc1", "Potency": "inactive"}
{"smiles": "c1ccc(SCc2cn(C[C@H]3CC[C@@H]([C@@H]4CC[C@H](Cn5cc(CSc6ccccc6)nn5)O4)O3)nn2)cc1", "Potency": "inactive"}
{"smiles": "Cc1ccccc1C(=O)c1c[nH]c(C(=O)N2CCN(c3ccccc3F)CC2)c1", "Potency": "inactive"}
{"smiles": "C=CCn1c(-c2cnn(-c3ccccc3)c2N)n[nH]c1=S", "Potency": "inconclusive: 7.94 µM [inhibitor, partial curve]"}
{"smiles": "O=C(NCC(=O)N1CC(O)CC1C(=O)N1CCCC1C(=O)OCc1ccccc1)OCc1ccccc1", "note": "(configuration not stated)", "Potency": "inactive"}
{"smiles": "CCOC(=O)CNC(=S)n1ncnc1N", "Potency": "inconclusive: 10 µM [inhibitor, partial curve, poor fit]"}
{"smiles": "Nc1nc(Cl)cc(NCCc2ccccc2)n1", "Potency": "inconclusive: 15.8 µM [activator, single point]"}
{"smiles": "O=C(CCn1c(=O)[nH]c2ccccc2c1=O)NCCSCc1ccccc1", "Potency": "inactive"}
{"smiles": "O=S(=O)(Nc1nc2ccccc2s1)c1cc(F)ccc1F", "Potency": "inactive"}
{"smiles": "CCOc1cc(C2C(C#N)=C(N)OC(C)=C2C(C)=O)c(Br)c(Br)c1OC(C)C", "note": "(configuration not stated)", "Potency": "inconclusive: 35.5 µM [inhibitor, single point]"}
{"smiles": "CC(C)C(C(=O)Nc1ccc2c(c1)OCO2)N1C(=O)c2ccccc2C1=O", "note": "(configuration not stated)", "Potency": "inconclusive: 12.6 µM [activator, single point]"}
{"smiles": "O=C(CNC(=S)NC(=O)c1ccccc1Br)c1ccccc1", "Potency": "inactive"}
{"smiles": "Cc1n[nH]c(C)c1S(=O)(=O)N1CCC(C(=O)Nc2cccc(F)c2)CC1", "Potency": "inconclusive: 20 µM [activator, partial curve, poor fit]"}
{"smiles": "CCNC(=O)CSc1nc(-c2ccccc2)cs1", "Potency": "inactive"}
{"smiles": "CN(C)c1ccc(N/C(=N\\S(=O)(=O)c2cccs2)c2ccccc2)cc1", "Potency": "inconclusive: 5.62 µM [activator, full curve]"}
{"smiles": "CCCNC(=O)CS(=O)(=O)Cc1nc(-c2cccc(OC)c2)oc1C", "Potency": "inactive"}
{"smiles": "Cn1cc(Cl)c(C(=O)NNC(=S)NC2CCCCC2)n1", "Potency": "inconclusive: 2.82 µM [inhibitor, full curve]"}
{"smiles": "CCN(CC)c1ccc(/C=N/NC(=O)c2c(-c3ccccc3)noc2C)cc1", "Potency": "active: 11.2 µM"}
{"smiles": "COc1ccc(CNC(=S)Nc2ccccc2-c2ccccc2)cc1", "Potency": "active: 2 µM"}
{"smiles": "CCN1c2ccccc2N(C)C1(C)c1ccccc1", "note": "(configuration not stated)", "Potency": "inactive"}
{"smiles": "COCCNC(=S)N/N=C/c1ccc([N+](=O)[O-])cc1", "Potency": "inconclusive: 3.98 µM [inhibitor, partial curve, poor fit]"}
{"smiles": "O=C(NC1CCCCC1)N1CCN(c2ccccc2Cl)CC1", "Potency": "inactive"}
{"smiles": "c1ccc(Cn2nnc3c(NCC4CCCO4)nc(C4CC4)nc32)cc1", "note": "(configuration not stated)", "Potency": "inconclusive: 5.62 µM [inhibitor, single point]"}
{"smiles": "CCC(=O)N(C)CCc1cc2c(c(OC)c1/C=N/NC(=O)c1ccccc1O)OCO2", "Potency": "inconclusive: 31.6 µM [inhibitor, single point]"}
{"smiles": "Cc1nc2ccccc2c(=O)n1/N=C/c1ccc2ccccc2c1O", "Potency": "inactive"}
{"smiles": "O=C(Nc1ccc(F)cc1)C1=CC(=O)N2CCN=C2S1", "Potency": "inconclusive: 22.4 µM [inhibitor, single point]"}
{"smiles": "COc1ccc(C(=O)CCN2CCCCCC2)cc1", "Potency": "active: 3.16 µM"}
{"smiles": "COc1ccc2ccccc2c1C1CC(=O)N2CN(C3CCCCC3)CSC2=C1C#N", "note": "(configuration not stated)", "Potency": "inactive"}
{"smiles": "Cc1ccc(NS(=O)(=O)c2cc(C(=O)NCCSc3ccc(C)cc3)ccc2C)cc1", "Potency": "inconclusive: 7.08 µM [activator, partial curve]"}
{"smiles": "FC(F)(F)c1ccc(Cl)c(-n2c(-c3ccco3)n[nH]c2=S)c1", "Potency": "inconclusive: 25.1 µM [inhibitor, single point]"}
{"smiles": "CCc1nc(C)cn1S(=O)(=O)c1cc([N+](=O)[O-])ccc1Cl", "Potency": "inconclusive: 0.891 µM [inhibitor, full curve, poor fit]"}
{"smiles": "CCOc1ccc(Nc2ncnc3c2cnn3C)cc1", "Potency": "inconclusive: 10 µM [activator, partial curve, poor fit]"}
{"smiles": "Cc1[nH]c2ccc(F)cc2c(=O)c1SC(F)(F)C(F)C(F)(F)F", "note": "(configuration not stated)", "Potency": "inactive"}
{"smiles": "COc1ccc(-c2cnnc(N/N=C/c3ccc(O)c(O)c3)n2)cc1", "Potency": "inconclusive: 20 µM [inhibitor, single point]"}
{"smiles": "OC[C@@H]1OC(O)[C@H](O)[C@H](O)[C@H]1O", "note": "(some centres not stated)", "Potency": "inactive"}
{"smiles": "CCCC(=O)Nc1cnc(NC(=O)c2cccc(F)c2)cc1C", "Potency": "inconclusive: 15.8 µM [inhibitor, single point]"}
{"smiles": "CN(C)C=NC(=O)c1cc(C(=O)c2ccc(Cl)cc2)c[nH]1", "Potency": "inactive"}
{"smiles": "CC1(C)CC(=O)C(C=NCCO)=C(O)C1", "Potency": "inactive"}
{"smiles": "COc1cc(C2C(C#N)=C(C)NC3=C2C(=O)CC(C)(C)C3)cc(OC)c1O", "note": "(configuration not stated)", "Potency": "inactive"}
{"smiles": "COc1ccc(NC(=S)NC(NC(=O)c2ccccc2Cl)C(Cl)(Cl)Cl)c([N+](=O)[O-])c1", "note": "(configuration not stated)", "Potency": "inconclusive: 6.31 µM [inhibitor, single point]"}
